Results are given in words; binding and its absence hold for the method and conditions named. Binding seen in cells or lysates may run through a third protein. These calls come from enrichment with a bait or labelling near it, and not all partners need be listed. For some assays here: A no says only that the protein was not detected with the bait.
Columns and labels:
[1] = target: T1, phage displaying APPIMSV (phAPPIMSV); test: affinity purification with mass spectrometry; biotinylated phage carrying sulfo-SAND incubated with CAFs as bait, cross-linked by UV on ice, cells lysed, streptavidin agarose pull-down, SDS-PAGE with silver staining, unique band excised for MS/MS; only the target purified
T1 sequence (peptide): APPIMSV

[2] = target: T2, phage displaying HTTIPKV (phHTTIPKV); test: as above
T2 sequence (peptide): HTTIPKV

binding [1]: no binding
binding [2]: binds
B1: taste receptor type 2 member 9 (TAS2R9), endogenous on PDAC patient-derived CAFs (receptor, UniProt Q9NYW1 1-312)
chain: MPSAIEAIYIILIAGELTIGIWGNGFIVLVNCIDWLKRRDISLIDIILISLAISRICLLCVISLDGFFMLLFPGTYGNSVLVSIVNVVWTFANNSSLWFTSCLSIFYLLKIANISHPFFFWLKLKINKVMLAILLGSFLISLIISVPKNDDMWYHLFKVSHEENITWKFKVSKIPGTFKQLTLNLGVMVPFILCLISFFLLLFSLVRHTKQIRLHATGFRDPSTEAHMRAIKAVIIFLLLLIVYYPVFLVMTSSALIPQGKLVLMIGDIVTVIFPSSHSFILIMGNSKLREAFLKMLRFVKCFLRRRKPFVP

— paper PMC10058050, “A Bitter Taste Receptor as a Novel Molecular Target on Cancer-Associated Fibroblasts in Pancreatic Ductal Adenocarcinoma” (Pharmaceuticals, 2023)
